The test system of the series is abdominal vena cava injured by FeCl3. The settings on record: about 200 μl of imaging probe injected.

Turning to “FL4312: structurally identical to FL4247, but prepared from a different synthesis of the starting peptide P4247 (IRFTDGEWTWDDATKTWTWTEGGC)”, the “Mean thrombus weight” value turned out to be 0.02793 g.

As to “STWTWNGTNWTRNDGGC-Fluor750 (HiLyte Fluor750 conjugate; FL4447)”, the “Mean thrombus weight” value is 0.02184 g.

For the origin of these results see patent US20160168210A1, “DERIVATIVES OF COLLAGEN-BINDING HAIRPIN PEPTIDES” (NATIONAL RESEARCH COUNCIL OF CANADA, priority 2012, published 2016).
